# Results: PubChem BioAssay AID504847 (National Center for Advancing Translational Sciences (NCATS), 2011)
# Amino acid sequences for entries named in this document (tags omitted). A change or cut given only in a name is not applied to a line headed by its entry.
# UniProt P11473: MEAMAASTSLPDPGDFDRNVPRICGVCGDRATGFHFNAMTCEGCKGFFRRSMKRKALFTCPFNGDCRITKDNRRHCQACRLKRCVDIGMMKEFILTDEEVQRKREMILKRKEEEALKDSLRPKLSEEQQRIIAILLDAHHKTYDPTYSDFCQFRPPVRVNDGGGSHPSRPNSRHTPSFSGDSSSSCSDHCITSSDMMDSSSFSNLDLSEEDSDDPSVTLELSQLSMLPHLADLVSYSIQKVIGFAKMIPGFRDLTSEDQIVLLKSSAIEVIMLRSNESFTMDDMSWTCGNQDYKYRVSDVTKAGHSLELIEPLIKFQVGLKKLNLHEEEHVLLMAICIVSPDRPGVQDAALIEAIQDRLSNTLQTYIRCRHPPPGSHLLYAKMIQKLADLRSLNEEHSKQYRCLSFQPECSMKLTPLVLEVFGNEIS
# Hit rate of the full screen: of about 400,000 compounds, about 3,700 (0.93%) were called active. Inconclusive results, whose numbers are uncertain, are shown with a selection of clear calls. The call rests on the fitted dose curve; in most records, active means well fitted inhibition curve with a large enough effect; inconclusive means small, poorly fitted or top-dose-only effect, or another doubt; inactive means no such curve, though single readings can be large or run the other way. A potency beside an inconclusive call is a rough fit, not a confirmed value.
# Biological target: Vitamin D3 receptor (Homo sapiens) (UniProt P11473)
# Assay: Inhibitors of the vitamin D receptor (VDR): qHTS
# Settings: VDR-SRC2-3 peptide fluorescence polarization, 2 h; max response, negative = inhibition: stronger effect = lower value
# Summary of the method: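 FP read-out; VDR + SRC2-3 coactivator peptide; 23 nl compound by pintool; 2 h RT incubation; reagents held at 4 deg C, protected from light.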
# On the % scale 0 is the no-effect control and ±100 the full control effect; potency means the concentration at half of the fitted maximal effect.
SMILES,Potency,"max response, negative = inhibition"
Cc1c(NC(=S)NC(=O)c2sc3ccccc3c2Cl)cccc1C(=O)O,"inconclusive: 89.1 µM [inhibitor, single point]",
Nc1c(C(=O)Nc2nc3ccccc3s2)sc2nc(-c3cccs3)ccc12,,inactive: 31.8%
O=C(c1cc(C(F)(F)F)cc(C(F)(F)F)c1)N1CCC[C@@]2(CCN(c3ccccc3)C2)C1,"inconclusive: 17.8 µM [inhibitor, full curve]",
CC(C)CCN1C(=O)c2ccc(C(=O)OCC(=O)N(CC(C)C)C3CCS(=O)(=O)C3)cc2C1=O (stereo not given),,inactive: 21.7%
CCOC(=O)c1ccc(N2C(=O)CC(SCC(=O)Nc3ccc(S(N)(=O)=O)cc3)C2=O)cc1 (stereo not given),"inconclusive: 100 µM [inhibitor, partial curve, poor fit]",
CN1CCc2c(sc3c2C(=O)NC(c2ccccc2)N3)C1 (stereo not given),active: 70.8 µM,
CCNc1ncc2nc(-c3cccs3)c(=O)n(C[C@H]3CCCO3)c2n1,"inconclusive: 44.7 µM [inhibitor, partial curve]",
CC(=O)N1c2nc(C(C)C)nn2C2(CCCCC2)[C@@H]2CCCC[C@@H]21,,inactive: 1.85%
N/C(=N\N=Cc1ccc2c(c1)OCO2)NN=Cc1ccc2c(c1)OCO2,,inactive: -12.9%
O=[N+]([O-])c1cccc(CNC2CCCCCC2)c1,,inactive: -6.97%
CC(C)Cn1c(SCC(=O)N2CCc3ccccc3C2)nc2cc(Cl)ccc2c1=O,,inactive: 0.546%
CC(O)CSc1nc2c(c(=O)[nH]c(=O)n2C)n1CC(O)COc1ccccc1 (stereo not given),"inconclusive: 10 µM [inhibitor, partial curve, poor fit]",
Cc1ccc(-n2cccc2C(=S)N=P(N(C)C)(N(C)C)N(C)C)cc1,"inconclusive: 89.1 µM [inhibitor, partial curve, poor fit]",
COc1cc(NC(=O)CN2C(=O)c3ccccc3Sc3ccc(C(=O)N4CCCC4)cc32)cc(OC)c1,,inactive: 11.1%
CN/S(=N/S(=O)(=O)c1ccccc1)c1ccc(C)cc1 (stereo not given),,inactive: 0.326%
CSc1ccccc1C(=O)Nc1ccccc1C(=O)NC(C)C,active: 79.4 µM,
COc1ccc(/C(=N\Nc2ccccc2C(=O)O)c2ccccc2)cc1,,inactive: -6.07%
Cc1ccc(/C=C2/NC(=O)N(Cc3ccccc3F)C2=O)o1,active: 79.4 µM,
COc1ccc(OC)c(C(C(=O)NC2CCCCC2)N(C(=O)c2snc(C(N)=O)c2N)c2ccccc2OC)c1 (stereo not given),,inactive: -0.34%
CCCN(CC(=O)Nc1ccccc1OC)C(=O)CSc1ccc(Br)cc1C,"inconclusive: 89.1 µM [inhibitor, single point]",
N#Cc1nc(-c2ccc(OCc3ccccc3Cl)cc2)oc1N1CCCCCC1,,inactive: -3.54%
Cc1cc(NC(=O)CSc2nnc(NC(=O)C3CC(=O)N(c4ccccc4)C3)s2)no1 (stereo not given),"inconclusive: 89.1 µM [inhibitor, single point]",
COc1ccc(NS(=O)(=O)c2ccc(NC(=O)c3ccccc3)cc2)nn1,"inconclusive: 25.1 µM [inhibitor, single point]",
CCOC(=O)CNC(=O)CSc1nc(-c2cccc(C)c2)ns1,active: 79.4 µM,

SMILES,Potency,"max response, negative = inhibition"
COc1ccccc1NC(=S)NCc1ccc2c(c1)OCO2,"inconclusive: 31.6 µM [inhibitor, single point]",
CCc1ccc(S(=O)(=O)NC(=S)Nc2ccccc2)cc1,"inconclusive: 89.1 µM [inhibitor, single point]",
CCOC(=O)c1c(NC(=O)c2nc(SCC)ncc2Cl)sc2c1CCCC2,,inactive: 14.4%
Cc1ccccc1NC(=O)CSc1cn(CC(=O)N2CCCCCC2)c2ccccc12,,inactive: 11.5%
O=C(CN1CCN(S(=O)(=O)c2ccccc2)CC1)N1CCCCC1,"inconclusive: 100 µM [inhibitor, single point]",
COc1cc2oc(=O)cc(-c3ccc(-c4cccc(N)c4)cc3)c2c(OC)c1OC,"inconclusive: 63.1 µM [inhibitor, partial curve]",
Cc1cccc(N(CC(=O)NCCSCc2ccccc2)S(=O)(=O)c2ccccc2)c1C,,inactive: -17.1%
CCOC(=O)C1=CN(C(=O)OC(C)(C)C)C(CN2C(=O)COCC2=O)C1 (stereo not given),"inconclusive: 100 µM [inhibitor, partial curve, poor fit]",
CC(C)NC(=O)N1CCC2(CC1)CCN(S(C)(=O)=O)CC2,,inactive: -0.524%
O=C1C(Cl)=C(N2CCOCC2)C(=O)N1c1ccccc1Cl,active: 44.7 µM,
Cc1ccc(OCCCn2c(-c3ccc(Cl)cc3)nc3ccccc3c2=O)c(C)c1,,inactive: -11.4%
C=CC(=O)Oc1ccc(N2Cc3ccccc3C2=O)cc1,"inconclusive: 12.6 µM [inhibitor, full curve]",
Cc1noc(C)c1-c1cncnc1NCCN1CCOCC1,"inconclusive: 79.4 µM [inhibitor, partial curve, poor fit]",
O=C(Nc1ccc(F)cc1)c1nc[nH]c1C(=O)O,"inconclusive: 79.4 µM [inhibitor, partial curve, poor fit]",
Cc1ccc(C(=O)N2CCN(c3cccc(C)c3C)CC2)cc1S(=O)(=O)N1CCOCC1,,inactive: -20.3%
Cc1ccc(S(=O)(=O)/C=C\C#N)cc1,active: 2.82 µM,
COc1cc(/C=C2\CCc3ccccc3C2=O)cc(OC)c1OC,"inconclusive: 70.8 µM [inhibitor, single point]",
CCOCCCNC(=O)/C(C#N)=C/c1ccc(Cl)c([N+](=O)[O-])c1,"inconclusive: 50.1 µM [inhibitor, partial curve, poor fit]",
O=C(Nc1nc(-c2ccccc2)cs1)c1cccnc1,,inactive: 4.39%
COc1ccc(CNC(=O)c2cccn2-c2nnc(N3CCCC3)s2)c(OC)c1,,inactive: 8.35%
COc1cc2c(=O)n(Cc3ccco3)c(=O)n(CC(=O)c3cccc(Br)c3)c2cc1OC,,inactive: 5.29%
C[C@]12c3[nH]c4ccccc4c3CCN1C(=O)C(CC(=O)NCc1cccc(C(F)(F)F)c1)C[C@@H]2C(=O)N1CCOCC1 (stereo not given in full),"inconclusive: 63.1 µM [inhibitor, partial curve, poor fit]",
O=C(c1ccc(Br)cc1)c1sc(N2CCOCC2)nc1-c1ccccc1,"inconclusive: 89.1 µM [inhibitor, single point]",
COc1ccccc1C(CCN(Cc1cccs1)C(C)=O)c1ccco1 (stereo not given),"inconclusive: 70.8 µM [inhibitor, partial curve]",

# Structures from the list above containing a Cl atom:
SMILES,Potency,"max response, negative = inhibition"
Cc1c(NC(=S)NC(=O)c2sc3ccccc3c2Cl)cccc1C(=O)O,"inconclusive: 89.1 µM [inhibitor, single point]",
CC(C)Cn1c(SCC(=O)N2CCc3ccccc3C2)nc2cc(Cl)ccc2c1=O,,inactive: 0.546%
N#Cc1nc(-c2ccc(OCc3ccccc3Cl)cc2)oc1N1CCCCCC1,,inactive: -3.54%
CCOC(=O)c1c(NC(=O)c2nc(SCC)ncc2Cl)sc2c1CCCC2,,inactive: 14.4%
O=C1C(Cl)=C(N2CCOCC2)C(=O)N1c1ccccc1Cl,active: 44.7 µM,
Cc1ccc(OCCCn2c(-c3ccc(Cl)cc3)nc3ccccc3c2=O)c(C)c1,,inactive: -11.4%
CCOCCCNC(=O)/C(C#N)=C/c1ccc(Cl)c([N+](=O)[O-])c1,"inconclusive: 50.1 µM [inhibitor, partial curve, poor fit]",

# Grouped by structure: those above containing a CF3 group.
SMILES,Potency,"max response, negative = inhibition"
O=C(c1cc(C(F)(F)F)cc(C(F)(F)F)c1)N1CCC[C@@]2(CCN(c3ccccc3)C2)C1,"inconclusive: 17.8 µM [inhibitor, full curve]",
C[C@]12c3[nH]c4ccccc4c3CCN1C(=O)C(CC(=O)NCc1cccc(C(F)(F)F)c1)C[C@@H]2C(=O)N1CCOCC1 (stereo not given in full),"inconclusive: 63.1 µM [inhibitor, partial curve, poor fit]",

# (listing goes on)

SMILES,Potency,"max response, negative = inhibition"
COc1ccc(NC(=O)CN(C)C(=O)c2ccc(=O)[nH]c2)cc1,,inactive: 14.8%
Nc1c(S(=O)(=O)O)cc(Nc2ccc(Nc3nc(Cl)nc(Nc4ccc(S(=O)(=O)O)cc4)n3)c(S(=O)(=O)O)c2)c2c1C(=O)c1ccccc1C2=O,"inconclusive: 14.1 µM [inhibitor, full curve, poor fit]",
Cc1nn(-c2ccccc2)c(N)c1Sc1ccc([N+](=O)[O-])cc1,"inconclusive: 100 µM [inhibitor, single point]",
COc1ccc(OC)c(NC(=O)C2CCCN2C(=O)OCc2ccccc2)c1 (stereo not given),,inactive: -0.106%
COc1nc(-c2ccccc2)c2cc(C)ccc2n1,"inconclusive: 89.1 µM [inhibitor, single point]",
CCn1c2ccccc2c2cc(CN3CCN(Cc4ccc(OC)c(OC)c4)CC3)ccc21,,inactive: 6.95%
Cc1cc(NC(=O)Cn2c(=O)c3c(ncn3CC(C)C)n(Cc3ccccc3)c2=O)no1,,inactive: 4.3%
CCCOc1ccc(C(=O)NNC(=S)NC(C)=O)cc1,"inconclusive: 89.1 µM [inhibitor, partial curve, poor fit]",
Cc1nc2ccc(NC(=O)Cc3ccccc3F)cc2s1,"inconclusive: 70.8 µM [inhibitor, partial curve]",
COCC(=O)Nc1nnc(Cc2ccc(OC)c(OC)c2)s1,,inactive: 6.53%
CCOC(=O)N1CCN(CC(=O)NC(=O)Nc2ccc3c(c2)OCCO3)CC1,,inactive: -6.01%
CCc1ccccc1NC(=O)Cn1ccn(-c2ccc(OC)cc2)c(=O)c1=O,"inconclusive: 3.55 µM [inhibitor, partial curve, poor fit]",
c1ccc(CSc2nnc(-c3ccco3)c(-c3ccco3)n2)cc1,"inconclusive: 56.2 µM [inhibitor, partial curve, poor fit]",
COc1ccc(Nc2cc(C(=O)NCCCN3CCN(C)CC3)c3ccccc3n2)cc1OC,,inactive: 3.26%
Oc1cc(-c2ccccc2)c2ccccc2c1,"inconclusive: 50.1 µM [inhibitor, partial curve, poor fit]",
CCN(CC)Cc1oc(CO)cc(=O)c1O,,inactive: 6.92%
O=P(Cc1cc[n+]([O-])cc1)(c1ccccc1)c1ccccc1,"inconclusive: 22.4 µM [inhibitor, partial curve, poor fit]",
CC(C)=NNc1nc(-c2ccccc2)c(C)s1,,inactive: -16.3%
COc1cccc(NC(=O)Cn2cnc3sc(C)c(S(=O)(=O)N4CCN(C)CC4)c3c2=O)c1,"inconclusive: 39.8 µM [inhibitor, single point]",
O=C(NCCSc1c[nH]c2ccccc12)c1ccco1,"inconclusive: 89.1 µM [inhibitor, partial curve, poor fit]",
CC(C)Oc1cccc(OCCN2C(=O)c3ccccc3C2=O)c1,"inconclusive: 89.1 µM [inhibitor, single point]",
COC(=O)c1cc(S(=O)(=O)NCc2ccccc2OC)cn1C,,inactive: -7.16%
